The subject of this test is BDF1 mice, B16 melanoma ip, median survival T/C. As to the kind of experiment: NCI In Vivo Anticancer Drug Screen. Data for tumor model B16 Melanoma (intraperitoneal) in B6D2F1 (BDF1) mice. Conditions: T/C endpoint: median survival time, higher T/C = longer survival. On the procedure: The antitumor activity of compounds was measured in mice bearing transplantable tumors. Survival or tumor size were measured and the results are expressed as the measurement made in the treated group (T) divided by the measurement made in the vehicle treated control group (C). The tumor model used in this assay is B16 Melanoma (intraperitoneal) in B6D2F1 (BDF1) mice

The mark [1] stands for this setting: dose: 100.0 mg/kg/injection, schedule: Q01DX009 (ip), vehicle: Klucel (hydroxypropylcellulose) (HPC).
Where [2] appears, read: dose: 200.0 mg/kg/injection, schedule: Q01DX009 (ip), vehicle: Klucel (hydroxypropylcellulose) (HPC).
[3] abbreviates: dose: 400.0 mg/kg/injection, schedule: Q01DX009 (ip), vehicle: Klucel (hydroxypropylcellulose) (HPC).
Where [4] appears, read: dose: 200.0 mg/kg/injection, schedule: Q01DX009 (ip), vehicle: saline with Tween-80.
The mark [5] stands for this setting: dose: 100.0 mg/kg/injection, schedule: Q01DX009 (ip), vehicle: saline with Tween-80.

SMILES strings stand for the structures. The list shows only some results of the screen, not a fair sample: it is rich in T/C values a quarter to a half above the control, in often repeated tests (any T/C) and in doses without a T/C. Other doses and runs of a compound stand elsewhere. T/C is the treated group as % of the vehicle group. Some entries give survivors of the animals treated and no T/C: the source holds a T/C of zero for them, seemingly a mark for toxic or unscored doses. Some survivor counts are full or nearly so, which does not show that the dose was tolerated: the source hardly ever lists a survival T/C far under the control, and the zero likely stands for such cases as well. Counts of survivors are from the toxicity check (mostly the fifth day) where no day follows; animals may have died later. Schedules are NCI's codes, taken here to give the interval after Q, in days (D) or hours (H), and the number of doses after X. Some doses were run more than once; their values stand side by side, smallest first. Where survival is the endpoint, the PubChem record calls one and a half times the control and up active, and a quarter to a half above the control has no call in these data; cut-offs in other NCI protocols can differ. Some T/C values carry the count of animals alive at the toxicity check (mostly the fifth day); where none is given, no animal had died by that day. Numbered stars: 1 amine (or outer) side, 2 acyl side, 3 side chain; on linkers, the order of the positions; unused ones are H or OH. Bridge positions count the residues as written; N and C are the ends. Square brackets hold non-standard residues; d marks the D form. Peptide text beside a SMILES is read from it. I, II: the chains in the order shown. Actinocin(9to1) = Cc1c2oc3c(C)ccc(C(=O)[*:1])c3nc-2c(C(=O)[*:2])c(N)c1=O; NMeV = CN[CH](C(=O)O)C(C)C; Sar = CNCC(=O)O

Regarding `Cc1ccc(S(=O)(=O)OC2CCN(C)CC2)cc1`, the survivor count runs as follows: (dose: 12.0 mg/kg/injection, schedule: Q04DX003 (ip), vehicle: Klucel (hydroxypropylcellulose) (HPC)) 10 of 10; (dose: 25.0 mg/kg/injection, schedule: Q04DX003 (ip), vehicle: Klucel (hydroxypropylcellulose) (HPC)) 10 of 10; (dose: 50.0 mg/kg/injection, schedule: Q04DX003 (ip), vehicle: Klucel (hydroxypropylcellulose) (HPC)) 9 of 10; (dose: 100.0 mg/kg/injection, schedule: Q04DX003 (ip), vehicle: Klucel (hydroxypropylcellulose) (HPC)) 2 of 10 and 9 of 10; (dose: 200.0 mg/kg/injection, schedule: Q04DX003 (ip), vehicle: Klucel (hydroxypropylcellulose) (HPC)) 0 of 10; (dose: 400.0 mg/kg/injection, schedule: Q04DX003 (ip), vehicle: Klucel (hydroxypropylcellulose) (HPC)) 0 of 10.
With `CNC(C)Cc1ccccc1` (configuration not stated), the survivor count is recorded as 10 of 10 (dose: 7.5 mg/kg/injection, schedule: Q01DX009 (ip), vehicle: saline) and 6 of 10 (dose: 60.0 mg/kg/injection, schedule: Q01DX009 (ip), vehicle: saline).
Take `Cc1c2oc3c(C)ccc(C(=O)NC4C(=O)NC(C(C)C)C(=O)N(C)CC(=O)N(C)CC(=O)N(C)C(C(C)C)C(=O)OC4C)c3nc-2c(C(=O)NC2C(=O)NC(C(C)C)C(=O)N(C)CC(=O)N(C)CC(=O)N(C)C(C(C)C)C(=O)OC2C)c(N)c1=O` (configuration not stated) (I: TV[Sar][Sar][NMeV] / II: TV[Sar][Sar][NMeV]; ester I:1-I:C, II:1-II:C; linker I:N-II:N via Actinocin(9to1); configuration not given here): the survivor count is, setting by setting: (dose: 1.6 mg/kg/injection, schedule: Q01DX009 (ip), vehicle: water) 10 of 10; (dose: 2.4 mg/kg/injection, schedule: Q01DX009 (ip), vehicle: water) 10 of 10; (dose: 2000.0 micrograms/kg/injection, schedule: Q01DX009 (ip), vehicle: saline + alcohol) 10 of 10; (dose: 6000.0 micrograms/kg/injection, schedule: Q04DX003 (ip), vehicle: saline + alcohol) 5 of 10 and 6 of 10. For the same molecule, the T/C is, setting by setting: (dose: 250.0 micrograms/kg/injection, schedule: Q01DX009 (ip), vehicle: saline + alcohol) 142 % of control; (dose: 500.0 micrograms/kg/injection, schedule: Q01DX009 (ip), vehicle: saline + alcohol) 142 % of control; (dose: 750.0 micrograms/kg/injection, schedule: Q04DX003 (ip), vehicle: saline + alcohol) 139 and 144 % of control; (dose: 1000.0 micrograms/kg/injection, schedule: Q01DX009 (ip), vehicle: saline + alcohol) 140 % of control; (dose: 1500.0 micrograms/kg/injection, schedule: Q04DX003 (ip), vehicle: saline + alcohol) 126 % of control; (dose: 3000.0 micrograms/kg/injection, schedule: Q04DX003 (ip), vehicle: saline + alcohol) 133 % of control.
Take `Cc1c(N)nc(C(CC(N)=O)NCC(N)C(N)=O)nc1C(=O)NC(C(=O)NC(C)C(O)C(C)C(=O)NC(C(=O)NCCc1nc(-c2nc(C(=O)NCCCNCCCc3ccccn3)cs2)cs1)C(C)O)C(OC1OC(CO)C(O)C(O)C1OC1OC(CO)C(O)C(OC(N)=O)C1O)c1cnc[nH]1` (configuration not stated): the survivor count (dose: 48.0 mg/kg/injection, schedule: Q01DX009 (ip), vehicle: water) was 10 of 10.
As for `CCCC(OC(C)=O)C(Cl)(Cl)Cl` (configuration not stated), the survivor count under setting [1] was 9 of 10.
`CCCNCCNc1ccc(NCCNCCC)c2c1C(=O)c1ccccc1C2=O`: the survivor count (dose: 64.0 mg/kg/injection, schedule: Q01DX009 (ip), vehicle: acid diluted with saline) is reported as 0 of 10; the survivor count (dose: 128.0 mg/kg/injection, schedule: Q01DX009 (ip), vehicle: acid diluted with saline) is reported as 0 of 10; the survivor count (dose: 256.0 mg/kg/injection, schedule: Q01DX009 (ip), vehicle: acid diluted with saline) is recorded as 0 of 10.
`N#Cc1cn(C2OC(CO)C(O)C2O)c2ncnc(N)c12` (configuration not stated): the survivor count (dose: 0.5 mg/kg/injection, schedule: Q01DX009 (ip), vehicle: saline) is 10 of 10; the survivor count (dose: 1.0 mg/kg/injection, schedule: Q01DX009 (ip), vehicle: saline) was 10 of 10; the survivor count (dose: 2.0 mg/kg/injection, schedule: Q01DX009 (ip), vehicle: saline) is reported as 9 of 10.
`S=C1SCN(Cc2ccccc2)CN1Cc1ccccc1`: the survivor count under setting [2] is 9 of 10 and the survivor count under setting [3] is listed as 8 of 10.
On to `CC[C@@H](C)[C@@H]1NC(=O)C(NC(=O)C(CC(C)C)N(C)C(=O)C2CCCN2C(=O)C(C)O)C(C)OC(=O)C(Cc2ccc(OC)cc2)N(C)C(=O)C2CCCN2C(=O)C(CC(C)C)NC(=O)C(C)C(=O)C(C(C)C)OC(=O)C[C@H]1O` (some centres not stated), for which the T/C (dose: 20.0 micrograms/kg/injection, schedule: Q01DX009 (ip), vehicle: clinical formulation) is 140 % of control; the T/C (dose: 20.0 micrograms/kg/injection, schedule: Q01DX009 (ip), vehicle: distilled water + alcohol) is 127 % of control; the T/C (dose: 40.0 micrograms/kg/injection, schedule: Q01DX009 (ip), vehicle: clinical formulation) was 139 % of control; the T/C (dose: 40.0 micrograms/kg/injection, schedule: Q01DX009 (ip), vehicle: distilled water + alcohol) was 127 % of control; the T/C (dose: 80.0 micrograms/kg/injection, schedule: Q01DX009 (ip), vehicle: distilled water + alcohol) was 141 % of control.
As to `CCc1ccc(NC(=O)Nc2ccccc2)cc1`, the survivor count is listed as 10 of 10 under setting [1], 10 of 10 under setting [2] and 10 of 10 under setting [3].
Consider `CC(C)=CCC(O)C1=CC(=O)c2c(O)ccc(O)c2C1=O` (configuration not stated), for which the survivor count (dose: 20.0 mg/kg/injection, schedule: Q01DX009 (ip), vehicle: Klucel (hydroxypropylcellulose) (HPC)) is recorded as 10 of 10.
For `O=Cc1cc([N+](=O)[O-])ccc1Cl`, the survivor count under setting [4] is recorded as 9 of 10.
Consider `Cc1cccc(NC(=O)c2ccc(Cl)cc2Cl)c1C`, for which the survivor count under setting [1] is listed as 10 of 10, the survivor count under setting [2] is listed as 9 of 9 and the survivor count under setting [3] is given as 10 of 10.
As for `Cc1ccc(NCC2(/N=C/c3ccccc3)OC(CO)C(O)C2O)cc1` (configuration not stated), the T/C (dose: 177.0 mg/kg/injection, schedule: Q01DX009 (ip), vehicle: Klucel (hydroxypropylcellulose) (HPC)) was 134 % of control; the T/C (dose: 266.0 mg/kg/injection, schedule: Q01DX009 (ip), vehicle: Klucel (hydroxypropylcellulose) (HPC)) is 137 % of control [9 of 10 alive]; the T/C under setting [3] is 141 % of control [8 of 10 alive]. The survivor count is recorded as 5 of 10 under setting [2]; 2 of 10 under setting [3]; 8 of 10 (dose: 600.0 mg/kg/injection, schedule: Q01DX009 (ip), vehicle: Klucel (hydroxypropylcellulose) (HPC)).
Consider `NC(=O)C(O)C(O)C(O)C(O)C(N)=O` (configuration not stated), for which the T/C (dose: 50.0 mg/kg/injection, schedule: Q01DX009 (ip), vehicle: saline) is 126 % of control.
For `CCCC(C(CC)CN(C)C)N(C)C` (configuration not stated), the survivor count under setting [5] is 6 of 10.
Regarding `Cc1ccc(Nc2c3ccccc3nc3ccccc23)cc1`, the T/C by setting is: (dose: 37.5 mg/kg/injection, schedule: Q01DX009 (ip), vehicle: saline with Tween-80) 126 % of control; (dose: 75.0 mg/kg/injection, schedule: Q01DX009 (ip), vehicle: saline with Tween-80) 139 % of control.
On to `O=C(O)CNC(=O)C(Br)Cc1ccccc1` (configuration not stated), for which the survivor count was 10 of 10 under setting [5] and 10 of 10 under setting [4].
Take `N#CSCc1ccccc1Cl`: the survivor count (dose: 12.5 mg/kg/injection, schedule: Q04DX003 (ip), vehicle: saline with Tween-80) was 10 of 10; the survivor count (dose: 25.0 mg/kg/injection, schedule: Q01DX009 (ip), vehicle: saline with Tween-80) is listed as 2 of 10; the survivor count (dose: 25.0 mg/kg/injection, schedule: Q04DX003 (ip), vehicle: saline with Tween-80) is 10 of 10; the survivor count (dose: 50.0 mg/kg/injection, schedule: Q04DX003 (ip), vehicle: saline with Tween-80) is 0 of 10.

Source of the values: PubChem BioAssay AID192 (DTP/NCI, 2004).
